{"source": "patent US5534522A", "about": "“(R)-(Z)-1-azabicyclo [2.2.1] heptan-3-one,O-[3-(3-methoxyphenyl)-2-propynyl] oxime maleate as a pharmaceutical agent” (Warner-Lambert Company, priority 1995, dated 1996)", "experiment": "Evaluation of acid addition salts (ease of formation and crystallinity)", "type": "physicochemical", "details": "based on ease of formation and crystallinity; salt of 1a (free base treated with acid)", "procedure": "Many counter-ions were evaluated for salt-forming properties. The data presented in Table III answer the following questions: (1) did a solid salt precipitate from ether when free base 1a was treated with each acid?; (2) following collection of the salt by either filtration or evaporation of the ether, what solvents were used to crystallize the salt, and was a crystalline salt obtained from each solvent?; (3) melting point information; and (4) overall rating of each salt, based on considerations of ease of formation and crystallinity.", "note": "At least one structure is not confirmed: it was looked up by name or label, or the drawing left a doubt."}
{"smiles": "COc1cccc(C#CCO/N=C2\\CN3CC[C@@H]2C3)c1", "note": "[Undecanoate]", "values": [{"measurement": "Overall Salt Rating", "value": "Low"}]}
{"smiles": "COc1cccc(C#CCO/N=C2\\CN3CC[C@@H]2C3)c1", "note": "[Compound 2-Naphthoate, 2-Naphthoate]", "values": [{"measurement": "Overall Salt Rating", "value": "Low"}]}
{"smiles": "COc1cccc(C#CCO/N=C2\\CN3CC[C@@H]2C3)c1", "note": "[N-acetylglycinate]", "values": [{"measurement": "Overall Salt Rating", "value": "Low"}]}
